Data as given in PubChem BioAssay AID1347423 (Functional Genomics Laboratory (NCATS/FGL), 2020).
Hit rate of the full screen: of about 52,000 sequences, about 210 (0.4%) were called active.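 The calls were made as follows: active = gene whose silencing raises cell survival under the drug, median off-target-corrected z-score across its silencing RNAs 2 or more; inactive = the rest.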 The list shows a part of the results.

Experiment: Resistance to Poly (ADP-Ribose) Polymerase inhibitor: Gene Identification via Genome-wide siRNA Screen
Settings: mouse BRCA2 R2336H ES cells, olaparib, CellTiter-Glo viability; active compounds read high
How it was run: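 Genome-wide siRNA screen (3 siRNAs/gene, 20 nM) in mouse ES cells carrying hypomorphic BRCA2 R2336H; olaparib 500 nM added 48 h post-transfection, CellTiter-Glo viability 72 h later. Normalized to plate-median negative control; MAD z-scores, gene median, seed-adjusted.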

Sequence | z-score
GCUGUCCUUCUAUAACCCATT against A930004K21Rik | inactive: -0.507
GCUACAGUGGGACUUAGGATT against E130112L23Rik | inactive: 0.368
GGCUCAGCUUUUCUGUCAUTT against Cd200r3 | inactive: 0.843
GCUGGAGACAUUCGGUGAUTT against BC060267 | inactive: -0.581
GGUUCCUGAAAUCAAAUAUTT against Rgs1 | inactive: -1.53
GGAAUAGUAGCAAAACAGATT against Ppm1l | inactive: 0.0896
GCAGUACAUAGACAAGUUATT against 0610010D24Rik | inactive: -0.631
GGUAGAAAGUAACAGGAAGTT against Adhfe1 | inactive: -0.842
GCGAAUCAUGAAAUACCAGTT against D10Ertd610e | inactive: -0.31
GCAAGCAACGGUCAUUCUCTT against 8430417G17Rik | inactive: 0.175
GGUUAAUAGCAACAACCAGTT against Kifc3 | inactive: 1.06
GGUACAAAAGUUAAAGAGATT against Uchl5 | inactive: 1.2
GGUCUUUAGAAUUAGGCUCTT against Pml | inactive: 0.0668
GCACGAGUAUGUUUGACAUTT against 3732412D22Rik | inactive: -0.375
CGGCUUUGAAGUGGUGUAUTT against Smad9 | inactive: 0.09
AAGCGGAACUUCAGUAGCGTT against D11Bwg0280e | inactive: 2.74
GCUCGGUUUACUUAAAGUGTT against Alg2 | inactive: 0.892
CCAGAUAUGCACAUGAUAUTT against 4732415M23Rik | inactive: -0.882
CGAGGGAGACGAAAUUGUCTT against 1810014F10Rik | inactive: -1.31
GGACUCUCUUCUGGCAUCUTT against Bapx1 | inactive: 0.458
GGAACAUUCCAGAAUAUCATT against Gm711 | inactive: 0.106
GGCUUUGUAUCCUUAUGUATT against BC035291 | inactive: -0.703
GCAUUUGAGGCACUUAGAATT against 6430556C10Rik | inactive: 1.19
GGACUGGUAGUUCUGAUUUTT against Ppm1g | inactive: 0.67
GCUACUGAGAACAUAAACCTT against Hoxd4 | inactive: 0.226
GGAGCCCAUCAAGUAUGGUTT against 6030441F14Rik | inactive: -0.78

Sequence | z-score
GAAAGAAUCUAGAAAAGUGTT against Sprrl7 | inactive: -0.296
GCUCGUUUACUCUUACACCTT against Ebaf | inactive: 0.87
GGACCUUCGAAGUGCUAUGTT against Apbb1 | inactive: -0.134
CUUACGAUACAUAAGAGAATT against Zfp457 | inactive: 0.984
GGGCCAGACUCCAUACUAUTT against Arid1a | inactive: -0.692
GGGUGAGAAUGACCACUUUTT against Kcnq2 | inactive: -1.43
CCCACAUAAGCGAAUCUCUTT against Cdk4 | inactive: 0.72
CGAGGACUCAAUAGUAGCCTT against MGC59495 | inactive: 2.68
GGCAAUCUGCACUUUAUACTT against Pank2 | inactive: 0.397
GCAGAUCCAAUCAAAUCUCTT against Ly86 | inactive: 0.268
GGCAGGCCUCAGUUGAGAUTT against Pycrl | inactive: 0.572
GGAAAUUCCAUGUAUGACUTT against Tm7sf2 | inactive: -0.765
GGAGAAAUCAUCACAGUUATT against Snx9 | inactive: -0.624
GGAUGGACAUUUUGUCUUCTT against Mmp15 | inactive: 0.459
GGUCACGAUUCUGUCAGACTT against Catnal1 | inactive: -0.264
GGAAAAGGACCUUAAAUUUTT against 2810441O16Rik | inactive: 0.153
GGAGAGAAUAUCACAAUUGTT against Tas2r102 | inactive: -1.34
GCUACCUACUCAACAUUGCTT against Trim32 | inactive: 0.054
GGGACCACAGCACUGGUUUTT against Cox6a1 | inactive: -0.975
CCAAUAAGUGACCUUUUUUTT against 9930019B18Rik | inactive: -0.65
GGUAUUUUGGUGGACGGGUTT against Rbm17 | inactive: -1.29
GGAUCUUGAAGACCAAAAATT against 9030409G11Rik | inactive: -0.527
GCUGUUGUAACCAUAACAGTT against Ntsr1 | inactive: 0.932
GCACUGGAAAAUUUCUAAUTT against 4933425M15Rik | inactive: 0.24
GGAGAUCAAGAACUACGUCTT against Mrpl12 | inactive: 1.88
GGAAGAUGGUAUUCCAUAUTT against Dmc1h | inactive: 1.25

Sequence | z-score
GCACAUCAUUUAUCAGACATT against Ramp3 | inactive: -0.178
GCCUCAAGGCAUUGGCAAGTT against LOC545475 | inactive: -0.616
CCCUAAUAGAACUAAUGAATT against Kpnb1 | inactive: -3.47
CCAGUUGAAUUAGAAUCCATT against Ctns | inactive: 1.51
GGCCUUGCACUUCAGUUUCTT against AI317395 | inactive: 0.855
GGGACUUCAAAGCAGGUAGTT against Alx3 | inactive: -0.527
CCUCCUGACUUGGAUAGAGTT against Agt | inactive: 1.06
CGUGAACCGCCAGAAUGCUTT against Cdh5 | inactive: -0.228
GGACCAUAUGAACUUUAUUTT against Xpo7 | inactive: -0.659
GGAAGACAAAUCAGAAAGUTT against 9530046H09Rik | inactive: 0.314
GGAAGAGGACACAUUAGGCTT against 2410116G06Rik | inactive: 0.394
GGGAAGAUCUUCAAGAAGGTT against Pa2g4 | inactive: 0.217
GCAUCUGAUCUACCAGUCGTT against BC012016 | inactive: 0.309
GGCAACAGCCCAGAAAUUCTT against D930047P17Rik | inactive: 0.0872
GGAUAAAGGCAAAGACAAATT against 1200013F24Rik | inactive: -1.33
GGAUUAGGAAUUCUUGUGUTT against 1810049H13Rik | inactive: 0.168
GGUGAUAUGUGUGGGCUUGTT against B430104H02Rik | inactive: -1.44
GGUCUUCGAAGCUACGAUATT against Edem1 | inactive: 0.482
GGAGUCUCCAAUGAAAUGUTT against Kcnma1 | inactive: 1.49
GGAGCAACAGAGAUUUCUUTT against Gnefr | inactive: -0.971
GGGCAAUAAGAUGUACGUUTT against Eomes | inactive: 0.885
GGACUACGUAUUUUCCCUGTT against Cyc1 | inactive: 0.324
GGAGACAGGGUUUUUCCUGTT against Tap1 | inactive: 0.715
GGUUUCUUUUCCUCUGGGCTT against Gata1 | inactive: -0.507
GGACAUGCAUCUUGUUUUCTT against Olfr1307 | inactive: 0.906
GGGAAAAGUUUUGGAAAAUTT against Hps5 | inactive: -0.23

Looked up one by one from the list above:
Sequence | z-score
GGGACUUCAAAGCAGGUAGTT against Alx3 | inactive: -0.527
GGAAUAGUAGCAAAACAGATT against Ppm1l | inactive: 0.0896
GGCAAUCUGCACUUUAUACTT against Pank2 | inactive: 0.397
GGGUGAGAAUGACCACUUUTT against Kcnq2 | inactive: -1.43
GCACGAGUAUGUUUGACAUTT against 3732412D22Rik | inactive: -0.375
CCCUAAUAGAACUAAUGAATT against Kpnb1 | inactive: -3.47

Later entries.

Sequence | z-score
GCCACGAGAAGUGAACCAATT against 9430023P16Rik | inactive: -2.36
GGAUAAGAAGACCUGCAUCTT against Gng12 | inactive: 0.275
GGCCAAAGAAGAAUCUCCUTT against Aebp2 | inactive: -0.69
GGUGUACGAUGCAGUACCCTT against Slamf8 | inactive: 0.298
GGUUGUACGAUUAUAAAGGTT against Arih2 | inactive: 1.57
GGCUAUGAAGACUGGGUUUTT against 4933413B09Rik | inactive: -1.34
GGUAAUGGCUCACUUAAUATT against Malt1 | inactive: -1.4
GCUGUCAUGGGAAAAAUUGTT against Olfr729 | inactive: 0.689
GGAACAGAUGGGUGUGAAATT against Wnt2b | inactive: -2.7
CGACCAGCUUCUAGUGCUUTT against Pcdha8 | inactive: -1.64
GGGUAGCUCAGAAAGGUUATT against 7530404M11Rik | inactive: 0.188
CCAGGAAUUACUACGUCCGTT against Cyba | inactive: -0.51
GGGAUGUUCUUCAAUCCUGTT against Nedl2 | inactive: 2.39
CCUUUGAUUGACAGAAAGATT against Etv5 | inactive: 0.835
GGGAACAUUUAUCCCUGUGTT against Olfr480 | inactive: -0.0358
CCUUCUUUGUUCCAUAAGATT against Hapln2 | inactive: 0.826
GGUCAGAGGUCGACCUAUUTT against Oas1h | inactive: -0.863
GGCCCUCAUCAUAAAUGCUTT against Dctn6 | inactive: -1.9
GCUCCAGAGUUCGUCUUUGTT against Zfp64 | inactive: -2.31
AGUACCCAUAUCAACGAAGTT against Olfr926 | inactive: -1.02
GGUGUCUCUGAUGAAUCACTT against Syt15 | inactive: 1.21
CCAAGAAUGCCCAGCAAGUTT against E4f1 | inactive: 0.559
GGAGGUCACUCUUAUCCACTT against Amid | inactive: 0.435
CGGGAGGUGAAUAUCGAUUTT against 6530413N01Rik | inactive: -1.05
CCUACAUUCACCAAAAGGUTT against Usp9y | inactive: 0.561
GGAAAACAGGCAGGACUUCTT against D930020B18Rik | inactive: 0.0852
